From publication PMC7493962, “Structure-based inhibitors targeting the alpha-helical domain of the Spiroplasma melliferum histone-like HU protein” (Scientific Reports, 2020) come the findings set out here.

Sequences of proteins named here, by UniProt entry; tags and fusion partners are left off. A change or cut given only in a name is not applied to a line headed by its entry.
UniProt P0ACF0: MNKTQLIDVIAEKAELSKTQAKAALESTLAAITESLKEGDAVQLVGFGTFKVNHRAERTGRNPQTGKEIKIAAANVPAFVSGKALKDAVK

The exact form of at least one protein or probe is not confirmed. At least one verdict was read from the data and is not stated in words by the source.

This series addresses HUEc (Escherichia coli) (UniProt P0ACF0). Kind of series: EMSA. The following applies: no BDF inhibitor; EMSA: 20 mM Tris-HCl pH 8.0, 150 mM NaCl, 7% glycerol, 10 nM DNA, 10 min, temperature not stated; recombinant protein; label: 5'-HEX on strand 1.

For the sequence “AGTCTAGAGTGCAAGTTGAGTCCTT / AAGGACTCAACTGCACTCTAGACT [DS24a (24a)]”, the binding result is given as “binds”.
